Patent US20140107188, “USE OF HGMA-TARGETED PHOSPHOROTHIOATE DNA APTAMERS TO SUPPRESS CARCINOGENIC ACTIVITY AND INCREASE SENSITIVITY TO CHEMOTHERAPY AGENTS IN HUMAN CANCER CELLS” (Miami University, published 2014)

Tested on: HMGA1/HMGA2 (endogenous) (Homo sapiens)
Assay: activity in cells
Details: PS at all linkages on both strands, 0.1 ug transfection, protein in cells

CCCACTGCAGTCGGACTCACTCGC (double strand) [Mix-sDNA]
functional effect of the aptamer (negative control, not significant, scale: fold change in AsPC-1 viable cells vs TC at 96 h): -1.14

CCCCGGGCCCCGGCCGGGCGCCGC (double strand) [CG-sDNA]
functional effect of the aptamer (negative control, scale: % decrease in AsPC-1 viability vs TC at 96 h): 9.7

GGGAAAAAATTTTTTAAAAAACCC (double strand) [AT-sDNA]
functional effect of the aptamer (indirect, HMGA inhibition presumed, HMGA1 level unchanged, scale: % decrease in AsPC-1 viability vs TC at 96 h): 30.7

Construct, isoform or probe ends are uncertain for at least one entry.
